Results from publication doi:10.1101/2021.05.19.443414.
No constants are given. Whether binding was seen depends on the method and setting. In cells and extracts the contact can be indirect. A yes stands for co-enrichment or nearness to the bait. Other partners may have been found. Where a sequence is shown, tags or fusion partners need not be part of it. Values belong to the molecule of their own block, whether it stands above or below them.

Chains of the proteins cited; added tags and fusions are not shown.
UniProt P16892: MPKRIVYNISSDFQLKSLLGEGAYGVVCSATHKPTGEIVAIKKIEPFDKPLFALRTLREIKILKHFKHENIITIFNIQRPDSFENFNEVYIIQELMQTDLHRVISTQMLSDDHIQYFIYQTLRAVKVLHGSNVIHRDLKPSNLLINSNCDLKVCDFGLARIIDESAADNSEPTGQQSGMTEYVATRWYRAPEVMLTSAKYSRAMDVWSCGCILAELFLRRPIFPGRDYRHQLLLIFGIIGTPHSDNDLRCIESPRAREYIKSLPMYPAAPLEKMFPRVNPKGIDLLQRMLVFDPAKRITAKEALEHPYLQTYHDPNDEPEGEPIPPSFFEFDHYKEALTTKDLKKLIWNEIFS

Biological target: T1, Myc-tagged Kel1 (S. cerevisiae) (UniProt P38853)
T1 sequence: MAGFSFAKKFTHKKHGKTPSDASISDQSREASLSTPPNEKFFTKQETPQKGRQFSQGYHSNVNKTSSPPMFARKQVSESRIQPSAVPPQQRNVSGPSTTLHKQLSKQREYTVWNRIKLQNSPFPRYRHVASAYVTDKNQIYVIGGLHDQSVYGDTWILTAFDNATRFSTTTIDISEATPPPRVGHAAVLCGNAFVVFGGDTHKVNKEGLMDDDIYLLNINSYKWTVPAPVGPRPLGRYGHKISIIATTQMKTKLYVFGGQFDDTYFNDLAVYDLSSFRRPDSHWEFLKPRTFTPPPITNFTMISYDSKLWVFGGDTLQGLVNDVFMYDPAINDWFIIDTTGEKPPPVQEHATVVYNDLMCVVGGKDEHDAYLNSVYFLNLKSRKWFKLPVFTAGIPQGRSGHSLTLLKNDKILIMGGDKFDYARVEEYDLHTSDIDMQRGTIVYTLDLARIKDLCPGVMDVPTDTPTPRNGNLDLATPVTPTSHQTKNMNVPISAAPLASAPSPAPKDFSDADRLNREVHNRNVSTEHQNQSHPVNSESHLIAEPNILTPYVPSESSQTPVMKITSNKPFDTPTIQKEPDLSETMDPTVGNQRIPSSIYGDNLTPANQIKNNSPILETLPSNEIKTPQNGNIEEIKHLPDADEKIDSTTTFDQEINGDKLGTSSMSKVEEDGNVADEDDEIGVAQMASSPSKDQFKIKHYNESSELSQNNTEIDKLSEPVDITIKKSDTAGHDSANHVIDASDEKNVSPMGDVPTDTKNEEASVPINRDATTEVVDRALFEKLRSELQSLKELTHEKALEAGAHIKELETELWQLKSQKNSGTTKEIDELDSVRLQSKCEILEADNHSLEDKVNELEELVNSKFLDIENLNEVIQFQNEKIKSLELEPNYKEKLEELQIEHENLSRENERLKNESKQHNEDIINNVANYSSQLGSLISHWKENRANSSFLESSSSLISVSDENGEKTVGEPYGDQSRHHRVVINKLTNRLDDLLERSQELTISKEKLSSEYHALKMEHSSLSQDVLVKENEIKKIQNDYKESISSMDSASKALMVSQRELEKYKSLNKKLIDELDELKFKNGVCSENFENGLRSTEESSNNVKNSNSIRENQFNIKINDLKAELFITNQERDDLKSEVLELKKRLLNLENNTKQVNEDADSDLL
Test: affinity purification with mass spectrometry

Molecule: MAPK Fus3 (from UniProt P16892 1-353) (enzyme)
binding: binds

B1: Far1 (protein, UniProt P21268 1-830)
chain: MKTPTRVSFEKKIHTPPSGDRDAERSPPKKFLRGLSGKVFRKTPEFKKQQMPTFGYIEESQFTPNLGLMMSKRGNIPKPLNLSKPISPPPSLKKTAGSVASGFSKTGQLSALQSPVNITSSNKYNIKATNLTTSLLRESISDSTTMCDTLSDINLTVMDEDYRIDGDSYYEEDSPTFMISLERNIKKCNSQFSPKRYIGEKCLICEESISSTFTGEKVVESTCSHTSHYNCYLMLFETLYFQGKFPECKICGEVSKPKDKDIVPEMVSKLLTGAGAHDDGPSSNMQQQWIDLKTARSFTGEFPQFTPQEQLIRTADISCDGFRTPRLSNSNQFEAVSYLDSPFLNSPFVNKMATTDPFDLSDDEKLDCDDEIDESAAEVWFSKTGGEHVMVSVKFQEMRTSDDLGVLQDVNHVDHEELEEREKEWKKKIDQYIETNVDKDSEFGSLILFDKLMYSDDGEQWVDNNLVILFSKFLVLFDFEEMKILGKIPRDQFYQVIKFNEDVLLCSLKSTNIPEIYLRFNENCEKWLLPKWKYCLENSSLETLPLSEIVSTVKELSHVNIIGALGAPPDVISAQSHDSRLPWKRLHSDTPLKLIVCLNLSHADGELYRKRVLKSVHQILDGLNTDDLLGIVVVGRDGSGVVGPFGTFIGMINKNWDGWTTFLDNLEVVNPNVFRDEKQQYKVTLQTCERLASTSAYVDTDDHIATGYAKQILVLNGSDVVDIEHDQKLKKAFDQLSYHWRYEISQRRMTPLNASIKQFLEELHTKRYLDVTLRLPQATFEQVYLGDMAAGEQKTRLIMDEHPHSSLIEIEYFDLVKQQRIHQTLEVPNL
binding: binds

B3: Sst2 (protein, UniProt P11972 1-698)
chain: MVDKNRTLHELSSKNFSRTPNGLIFTNDLKTVYSIFLICLDLKEKKHSSDTKSFLLTAFTKHFHFTFTYQEAIKAMGQLELKVDMNTTCINVSYNIKPSLARHLLTLFMSSKLLHTPQDRTRGEPKEKVLFQPTPKGVAVLQKYVRDIGLKTMPDILLSSFNSMKLFTFERSSVTDSIIHSDYLIHILFIKMMGAKPNVWSPTNADDPLPCLSSLLEYTNNDDTFTFEKSKPEQGWQAQIGNIDINDLERVSPLAHRFFTNPDSESHTQYYVSNAGIRLFENKTFGTSKKIVIKYTFTTKAIWQWIMDCTDIMHVKEAVSLAALFLKTGLIVPVLLQPSRTDKKKFQISRSSFFTLSKRGWDLVSWTGCKSNNIRAPNGSTIDLDFTLRGHMTVRDEKKTLDDSEGFSQDMLISSSNLNKLDYVLTDPGMRYLFRRHLEKELCVENLDVFIEIKRFLKKMTILKKLIDSKHCDKKSNTSTSKNNIVKTIDSALMKQANECLEMAYHIYSSYIMIGSPYQLNIHHNLRQNISDIMLHPHSPLSEHFPTNLYDPSPASAESAASSISSTEADTLGEPPEVSLKPSKNLSNENCSFKKQGFKHQLKEYKPAPLTLAETHSPNASVENSHTIVRYGMDNTQNDTKSVESFPATLKVLRKLYPLFEIVSNEMYRLMNNDSFQKFTQSDVYKDASALIEIQEKC
binding: binds

B4: Ste5 (protein, UniProt P32917 1-917)
chain: MMETPTDNIVSPFHNFGSSTQYSGTLSRTPNQIIELEKPSTLSPLSRGKKWTEKLARFQRSSAKKKRFSPSPISSSTFSFSPKSRVTSSNSSGNEDGNLMNTPSTVSTDYLPQHPHRTSSLPRPNSNLFHASNSNLSRANEPPRAENLSDNIPPKVAPFGYPIQRTSIKKSFLNASCTLCDEPISNRRKGEKIIELACGHLSHQECLIISFGTTSKADVRALFPFCTKCKKDTNKAVQCIPENDELKDILISDFLIHKIPDSELSITPQSRFPPYSPLLPPFGLSYTPVERQTIYSQAPSLNPNLILAAPPKERNQIPQKKSNYTFLHSPLGHRRIPSGANSILADTSVALSANDSISAVSNSVRAKDDETKTTLPLLRSYFIQILLNNFQEELQDWRIDGDYGLLRLVDKLMISKDGQRYIQCWCFLFEDAFVIAEVDNDVDVLEIRLKNLEVFTPIANLRMTTLEASVLKCTLNKQHCADLSDLYIVQNINSDESTTVQKWISGILNQDFVFNEDNITSTLPILPIIKNFSKDVGNGRHETSTFLGLINPNKVVEVGNVHDNDTVIIRRGFTLNSGECSRQSTVDSIQSVLTTISSILSLKREKPDNLAIILQIDFTKLKEEDSLIVVYNSLKALTIKFARLQFCFVDRNNYVLDYGSVLHKIDSLDSISNLKSKSSSTQFSPIWLKNTLYPENIHEHLGIVAVSNSNMEAKKSILFQDYRCFTSFGRRRPNELKIKVGYLNVDYSDKIDELVEASSWTFVLETLCYSFGLSFDEHDDDDEEDNDDSTDNELDNSSGSLSDAESTTTIHIDSPFDNENATANMVNDRNLLTEGEHSNIENLETVASSVQPALIPNIRFSLHSEEEGTNENENENDMPVLLLSDMDKGIDGITRRSSFSSLIESGNNNCPLHMDYI
binding: binds

Next, values leading:

binding: binds
B2: pheromone receptor Ste2 (receptor, UniProt D6VTK4 1-431)
chain: MSDAAPSLSNLFYDPTYNPGQSTINYTSIYGNGSTITFDELQGLVNSTVTQAIMFGVRCGAAALTLIVMWMTSRSRKTPIFIINQVSLFLIILHSALYFKYLLSNYSSVTYALTGFPQFISRGDVHVYGATNIIQVLLVASIETSLVFQIKVIFTGDNFKRIGLMLTSISFTLGIATVTMYFVSAVKGMIVTYNDVSATQDKYFNASTILLASSINFMSFVLVVKLILAIRSRRFLGLKQFDSFHILLIMSCQSLLVPSIIFILAYSLKPNQGTDVLTTVATLLAVLSLPLSSMWATAANNASKTNTITSDFTTSTDRFYPGTLSSFQTDSINNDAKSSLRSRLYDLYPRRKETTSDKHSERTFVSETADDIEKNQFYQLPTPTSSKNTRIGPFADASYKEGEVEPVDMYTPDTAADEEARKFWTEDNNNL

binding: binds
B5: Fig1 (protein, UniProt P38224 1-298)
chain: MVAISMIWFFTKRMPRIFALAFNLISIFLLIFLLIGCYNPSNQSTFLVKYKFDDNSPFYTIIEKSYEKSNTTLGLEEVIIRSGYMGVCIDNIPSQYSSYNNMTTFSNSICYARKNLSSVPLYRDLEIQLSNIASSSSKTQSSVVLNILKLAQLTSVNVIHPYVLMATVILTILMFLFILYVTVPKLPFKLAVNKFLLLLSSTIVLTWGIGAMWTHVGINASYRLVPSSSMNIITVKKGKKAAVMAWFSFAFLLLDSVVLWLIFLRDRKSLKDEIDNVPCAQNRYNNYSSDSSTLHSKV
